This passage reports binding results from paper PMC8837547.

Chains of the proteins cited; added tags and fusions are not shown. Residues count along the entry.
UniProt Q5TEJ8: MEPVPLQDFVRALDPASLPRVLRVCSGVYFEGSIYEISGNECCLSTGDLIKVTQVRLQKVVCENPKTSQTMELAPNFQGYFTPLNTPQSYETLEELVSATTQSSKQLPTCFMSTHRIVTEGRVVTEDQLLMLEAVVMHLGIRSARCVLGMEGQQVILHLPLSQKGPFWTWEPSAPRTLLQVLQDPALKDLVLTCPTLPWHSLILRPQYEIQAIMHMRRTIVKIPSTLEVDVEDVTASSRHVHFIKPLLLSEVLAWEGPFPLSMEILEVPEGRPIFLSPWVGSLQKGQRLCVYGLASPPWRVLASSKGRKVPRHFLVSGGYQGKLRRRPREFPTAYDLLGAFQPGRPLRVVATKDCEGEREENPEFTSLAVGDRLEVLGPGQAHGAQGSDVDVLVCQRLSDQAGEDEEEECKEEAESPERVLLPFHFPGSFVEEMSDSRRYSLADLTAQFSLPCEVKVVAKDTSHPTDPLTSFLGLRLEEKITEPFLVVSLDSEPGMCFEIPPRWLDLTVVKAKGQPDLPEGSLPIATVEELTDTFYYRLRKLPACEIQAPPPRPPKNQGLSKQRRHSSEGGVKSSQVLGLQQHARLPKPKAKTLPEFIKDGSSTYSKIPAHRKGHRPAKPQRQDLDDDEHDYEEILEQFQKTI
UniProt P08581, residues 25-1390: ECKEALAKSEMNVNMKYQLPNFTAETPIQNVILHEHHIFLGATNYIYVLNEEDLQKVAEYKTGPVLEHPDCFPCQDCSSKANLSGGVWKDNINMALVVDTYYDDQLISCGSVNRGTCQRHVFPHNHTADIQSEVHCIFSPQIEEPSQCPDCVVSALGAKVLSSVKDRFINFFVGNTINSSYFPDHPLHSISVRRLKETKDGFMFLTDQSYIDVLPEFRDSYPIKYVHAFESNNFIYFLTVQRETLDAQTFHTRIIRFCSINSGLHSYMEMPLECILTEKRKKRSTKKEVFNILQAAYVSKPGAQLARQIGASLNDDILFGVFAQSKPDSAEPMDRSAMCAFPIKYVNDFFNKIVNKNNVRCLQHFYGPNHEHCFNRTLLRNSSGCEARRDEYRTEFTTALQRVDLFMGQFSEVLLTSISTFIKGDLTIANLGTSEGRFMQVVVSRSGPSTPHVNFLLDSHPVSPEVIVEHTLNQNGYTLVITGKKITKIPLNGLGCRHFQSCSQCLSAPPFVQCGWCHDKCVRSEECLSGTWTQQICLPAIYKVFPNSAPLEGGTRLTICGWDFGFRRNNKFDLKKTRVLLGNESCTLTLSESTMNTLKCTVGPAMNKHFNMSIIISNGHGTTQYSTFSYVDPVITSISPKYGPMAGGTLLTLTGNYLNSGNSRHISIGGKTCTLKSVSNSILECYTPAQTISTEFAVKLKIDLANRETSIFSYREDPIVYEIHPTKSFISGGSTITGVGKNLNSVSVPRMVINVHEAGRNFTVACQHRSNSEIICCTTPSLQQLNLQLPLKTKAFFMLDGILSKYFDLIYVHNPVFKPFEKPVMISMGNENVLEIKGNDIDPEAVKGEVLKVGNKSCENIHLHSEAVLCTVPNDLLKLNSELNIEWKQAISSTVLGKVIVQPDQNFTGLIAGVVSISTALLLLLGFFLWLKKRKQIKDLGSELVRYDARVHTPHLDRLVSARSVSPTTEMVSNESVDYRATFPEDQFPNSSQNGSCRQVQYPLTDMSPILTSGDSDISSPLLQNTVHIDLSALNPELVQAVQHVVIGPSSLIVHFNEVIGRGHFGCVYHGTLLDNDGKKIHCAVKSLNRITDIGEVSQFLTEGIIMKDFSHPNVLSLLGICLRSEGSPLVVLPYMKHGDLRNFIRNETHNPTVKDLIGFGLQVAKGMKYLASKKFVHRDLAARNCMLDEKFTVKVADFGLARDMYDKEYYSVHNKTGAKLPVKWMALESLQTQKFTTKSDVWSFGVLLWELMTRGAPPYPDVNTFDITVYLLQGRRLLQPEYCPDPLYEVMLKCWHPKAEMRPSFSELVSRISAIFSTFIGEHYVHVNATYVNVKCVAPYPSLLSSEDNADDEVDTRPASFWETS

Assay [1] deals with T1, protein-tyrosine phosphatases 1B (PTP1B) (human (endogenous in MDA-MB-231, Hs578T and other TNBC lines)) (UniProt P18031).
T1 sequence: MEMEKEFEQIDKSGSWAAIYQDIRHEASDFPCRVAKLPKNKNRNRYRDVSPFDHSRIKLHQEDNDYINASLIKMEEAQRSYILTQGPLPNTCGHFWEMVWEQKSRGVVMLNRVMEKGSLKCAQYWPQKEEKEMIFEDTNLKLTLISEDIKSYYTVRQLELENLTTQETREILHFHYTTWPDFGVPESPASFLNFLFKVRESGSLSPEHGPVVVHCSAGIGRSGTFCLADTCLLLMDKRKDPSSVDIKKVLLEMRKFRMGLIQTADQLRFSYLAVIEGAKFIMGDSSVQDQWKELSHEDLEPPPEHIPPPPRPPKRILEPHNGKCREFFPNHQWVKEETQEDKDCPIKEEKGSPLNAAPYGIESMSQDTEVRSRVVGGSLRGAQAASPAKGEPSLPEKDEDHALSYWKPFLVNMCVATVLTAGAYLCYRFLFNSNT
Briefly: co-IP; IP with a PTP1B antibody or a p-MET antibody from TNBC cell lysates (MDA-MB-231, Hs578T, MDA-MB-468, BT549), IgG as negative control; cells with THEMIS2 overexpression or THEMIS2 siRNA, with or without HGF (30 ng) for 30 min.

For assay [2], the target named is T1, protein-tyrosine phosphatases 1B (PTP1B) (human (endogenous in MDA-MB-231, Hs578T and other TNBC lines)). The assay is described as follows: proximity ligation; Duolink PLA with p-MET or MET and PTP1B antibodies in Hs578T and MDA-MB-231 cells; THEMIS2 siRNA or overexpression, with or without 30 ng/mL HGF for 30 min; p-MET antibody alone as negative control.
In assay [3] the target is Thymocyte expressed molecule involved in selection 2 (THEMIS2) (human (endogenous in MDA-MB-231-IV2, MDA-MB-231, Hs578T)) (UniProt Q5TEJ8). Briefly: co-IP; reciprocal IP of endogenous THEMIS2 and MET from MDA-MB-231-IV2 cell lysates, IgG as negative control; also sphere cells against parental cells in three TNBC lines.
Assay [4] deals with MET (human (endogenous in MDA-MB-231, Hs578T and other TNBC lines)) (UniProt P08581). The assay is described as follows: proximity ligation; Duolink PLA with THEMIS2 and MET antibodies in MDA-MB-231 cells; also Hs578T sphere cells against parental cells.
Assay [5] shares this target. The assay is described as follows: co-IP; reciprocal IP of endogenous THEMIS2 and MET from MDA-MB-231-IV2 cell lysates, IgG as negative control; also sphere cells against parental cells in three TNBC lines.

These are yes or no findings as the source states them, for the method shown. In cells and extracts the contact can be indirect. Some binding calls cover weakened binding; strength is not graded here.

Consider “MET (from UniProt P08581 25-1390) (receptor)”, for which the binding result in assay [1], in assay [2] and in assay [3] was “binds” each time.

With “Thymocyte expressed molecule involved in selection 2 (THEMIS2) (from UniProt Q5TEJ8 1-643)”, the binding result in assay [4] and in assay [5] was “binds” in each case.
